PubChem BioAssay AID743121 | NCATS – 2013
Test: 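Genes whose silencing strengthens cell killing by camptothecin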 (primary screen). Cells: MDA-MB-231 cells, a human breast cancer line. Knock-down reagent: single siRNA against human genes, 20 nM siRNA (0.8 pmol per well). Timing: 120 h (drug added 48 h after transfection, read 72 h later). Challenge: camptothecin 20 nM (about EC30) for 72 h; vehicle 0.1% DMSO in parallel plates. Measured: 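Cell viability by ATP luminescence (CellTiter-Glo) as % of non-targeting siRNA wells, and the log2 ratio of viability without drug over viability with camptothecin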. Direction: log2 vehicle/camptothecin viability: higher = stronger sensitisation to camptothecin; viability with camptothecin and viability without drug: higher = more viable cells. Hit rule: 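Active genes have an RSA gene-level p-value below 0.001, computed from the ratios of their separate siRNAs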.
In all, the deposit lists about 26,000 reagents; below is a part drawn at random. Over the whole deposit, 167 (0.63%) are marked active. 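Calls are per gene from RSA p-values that are not deposited; an individual active-marked siRNA can sensitise only weakly.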 A number with no mark means an inactive call. The numbers tell different reagents against one gene apart.

| Target gene | reagent | log2 vehicle/camptothecin viability | viability with camptothecin (% of control) | viability without drug (% of control) |
| --- | --- | --- | --- | --- |
| LRRN1 | 1 | -0.314 | 87.6 | 70.4 |
| LRRN1 | 2 | -0.328 | 114 | 90.8 |
| LRRN1 | 3 | -0.144 | 103 | 92.9 |
| LRRN1 | 4 | -0.0283 | 69.1 | 67.8 |
| ZNF443 | 1 | 0.0561 | 65.8 | 68.4 |
| ZNF443 | 2 | -0.108 | 106 | 98.5 |
| ZNF443 | 3 | -0.409 | 51.5 | 38.8 |
| ZNF443 | 4 | -0.143 | 86.8 | 78.7 |
| FDXR | 1 | -0.389 | 35.1 | 26.8 |
| FDXR | 2 | -0.629 | 41.4 | 26.7 |
| FDXR | 3 | -0.245 | 38.6 | 32.6 |
| FDXR | 4 | -0.209 | 90.8 | 78.6 |
| GPR119 | 1 | -0.0925 | 60.7 | 56.9 |
| GPR119 | 2 | -0.161 | 76.2 | 68.2 |
| GPR119 | 3 | -0.273 | 104 | 86.1 |
| GPR119 | 4 | -0.329 | 71.9 | 57.2 |

Only “log2 vehicle/camptothecin viability”, for 2 of the entries above:
FDXR #2 = -0.629
FDXR #3 = -0.245

Further results:
| Target gene | reagent | log2 vehicle/camptothecin viability | viability with camptothecin (% of control) | viability without drug (% of control) |
| --- | --- | --- | --- | --- |
| GADL1 | 1 | -0.0794 | 80.4 | 76.1 |
| GADL1 | 2 | -0.478 | 73.2 | 52.5 |
| GADL1 | 3 | 0.152 | 61.1 | 67.9 |
| GADL1 | 4 | -0.176 | 72.5 | 64.2 |
| APC2 | 1 | -0.171 | 75.7 | 67.2 |
| APC2 | 2 | -0.141 | 79 | 71.6 |
| APC2 | 3 | -0.0871 | 19.5 | 18.3 |
| APC2 | 4 | -0.189 | 86.1 | 75.6 |
| TLR2 | 1 | -0.194 | 97.8 | 85.5 |
| TLR2 | 2 | -0.378 | 88.2 | 67.9 |
| TLR2 | 3 | -0.0312 | 93 | 91 |
| TLR2 | 4 | 0.398 | 65.9 | 86.8 |
